Results reported in doi:10.1101/2022.12.25.521893 (bioRxiv, 2022).

B1: endogenous E. coli Lpp (the Braun's lipoprotein) (protein, UniProt P69776 21-78)
chain: CSSNAKIDQLSSDVQTLNAKVDQLSNDVNAMRSDVQAAKDDAARANQRLDNMATKYRK
B2: endogenous E. coli lipoprotein YedD (natural protein)
chain: CAEVENYNNVVKTPAPDWLAGYWQTKGPQRALVSPEAIGSLIVTKEGDTLDCRQWQRVIAVPGKLTLMSDDLTNVTVKRELYEVERDGNTIEYDGMTMERVDRPTAECAAALDKAPLPTPLP
B3: endogenous E. coli lipoprotein YbjP (protein, UniProt P75818 19-171)
chain: CTTVTPAYKDNGTRSGPCVEGGPDNVAQQFYDYRILHRSNDITALRPYLSDKLATLLSDASRDNNHRELLTNDPFSSRTTLPDSAHVASASTIPNRDARNIPLRVDLKQGDQGWQDEVLMIQEGQCWVIDDVRYLGGSVHATAGTLRQSIENR
B4: endogenous E. coli lipoprotein Slp (protein, UniProt P37194 19-188)
chain: CSSIPQNIKGNNQPDIQKSFVAVHNQPGLYVGQQARFGGKVINVINGKTDTLLEISVLPLDSYAKPDIEANYQGRLLARQSGFLDPVNYRNHFVTILGTIQGEQPGFINKVPYNFLEVNMQGIQVWHLREVVNTTYNLWDYGYGAFWPEPGWGAPYYTNAVSQVTPELVK
B5: endogenous E. coli lipoprotein Blc (protein, UniProt P0A901 19-177)
chain: CSSPTPPRGVTVVNNFDAKRYLGTWYEIARFDHRFERGLEKVTATYSLRDDGGLNVINKGYNPDRGMWQQSEGKAYFTGAPTRAALKVSFFGPFYGGYNVIALDREYRHALVCGPDRDYLWILSRTPTISDEVKQEMLAVATREGFDVSKFIWVQQPGS

Molecular target: LptDE complex from Pseudomonas aeruginosa with a hexahistidine tag on LptE (Pseudomonas aeruginosa)
Assay: affinity purification with mass spectrometry

Which binding does the source give for B1 here?
The binding was “binds”.

Which binding does the source give for B2 here?
Its binding is “binds”.

Which binding does the source give for B3 here?
Its binding is “binds”.

With B4 as the binder, how does the binding read?
The binding was “binds”.

B5 was tested. Which binding did it give?
Its binding is “binds”.

These are yes or no findings as the source states them, for the method shown. In cells and extracts the contact can be indirect. These calls come from enrichment with a bait or labelling near it, and not all partners need be listed.
